These results are taken from article PMC7196669.

By UniProt entry, the sequences of proteins in these tests, tags left out.
UniProt Q15077: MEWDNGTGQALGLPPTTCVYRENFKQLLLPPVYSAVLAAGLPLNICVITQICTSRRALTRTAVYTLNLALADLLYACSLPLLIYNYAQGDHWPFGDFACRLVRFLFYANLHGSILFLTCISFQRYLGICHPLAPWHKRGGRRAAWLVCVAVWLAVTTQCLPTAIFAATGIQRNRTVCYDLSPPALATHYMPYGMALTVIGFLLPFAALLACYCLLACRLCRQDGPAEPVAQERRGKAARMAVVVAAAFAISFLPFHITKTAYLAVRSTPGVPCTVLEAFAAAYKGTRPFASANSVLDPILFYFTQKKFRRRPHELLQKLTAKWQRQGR
UniProt P32121: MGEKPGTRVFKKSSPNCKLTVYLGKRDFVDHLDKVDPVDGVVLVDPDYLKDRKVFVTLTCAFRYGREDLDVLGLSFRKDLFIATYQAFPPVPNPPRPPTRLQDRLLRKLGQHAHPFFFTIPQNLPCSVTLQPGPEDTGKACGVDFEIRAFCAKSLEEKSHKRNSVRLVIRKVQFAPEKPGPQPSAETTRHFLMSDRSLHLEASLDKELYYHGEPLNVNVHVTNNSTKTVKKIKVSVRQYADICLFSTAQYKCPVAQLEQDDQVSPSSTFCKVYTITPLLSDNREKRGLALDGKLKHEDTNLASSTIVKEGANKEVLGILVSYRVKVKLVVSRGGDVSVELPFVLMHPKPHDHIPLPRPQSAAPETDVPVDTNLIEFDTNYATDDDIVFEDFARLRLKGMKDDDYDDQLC
UniProt Q8IUC6: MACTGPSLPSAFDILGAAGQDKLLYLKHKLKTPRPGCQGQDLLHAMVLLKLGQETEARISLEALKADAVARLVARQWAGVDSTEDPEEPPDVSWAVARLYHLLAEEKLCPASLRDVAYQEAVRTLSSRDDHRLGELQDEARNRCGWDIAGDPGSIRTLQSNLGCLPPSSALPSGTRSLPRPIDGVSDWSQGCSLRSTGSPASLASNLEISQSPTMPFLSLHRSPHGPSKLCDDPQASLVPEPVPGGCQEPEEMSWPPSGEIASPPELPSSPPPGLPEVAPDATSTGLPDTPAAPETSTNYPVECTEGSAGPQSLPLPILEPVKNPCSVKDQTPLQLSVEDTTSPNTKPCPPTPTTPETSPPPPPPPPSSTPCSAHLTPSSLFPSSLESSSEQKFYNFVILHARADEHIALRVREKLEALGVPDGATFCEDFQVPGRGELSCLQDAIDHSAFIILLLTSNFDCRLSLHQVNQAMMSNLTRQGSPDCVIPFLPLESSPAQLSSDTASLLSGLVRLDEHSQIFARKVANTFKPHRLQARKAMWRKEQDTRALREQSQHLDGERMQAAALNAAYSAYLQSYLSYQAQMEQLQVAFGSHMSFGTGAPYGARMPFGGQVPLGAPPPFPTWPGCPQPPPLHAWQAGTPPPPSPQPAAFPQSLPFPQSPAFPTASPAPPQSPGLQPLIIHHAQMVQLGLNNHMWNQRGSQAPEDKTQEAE

No constants are given. Whether binding was seen depends on the method and setting. In cells and extracts the contact can be indirect. Some entries that bind do so weakly or less than the wild type.

The target of this experiment is P2Y6 purinergic receptor (human (endogenous in THP-1)) (UniProt Q15077). The experiment can be described thus: co-IP; THP-1 lysates (25 mM Tris-HCl, 150 mM NaCl, 1 mM EDTA, 1% NP-40, 5% glycerol) incubated with P2Y6 receptor antibody 16 h at 4°C, then protein G-agarose 6 h at 4°C; precipitate read by western blot; cells pre-treated with 100 μg/ml PLAG or DMSO for 1 h, then 200 μg/ml MSU crystals for 0, 7, 15, 30, 60 min. For orientation: A western blot detects proteins with antibodies after separation by electrophoresis.

As to “β-arrestin 2 (from UniProt P32121 1-409)”, the binding result is recorded as “binds”.
Under “TIR-domain-containing adapter-inducing interferon-β (from UniProt Q8IUC6 1-712)” stands “binds”.
